Test results as given in US20110038885A1 (priority 2007, published 2011).
Numbered stars: 1 amine (or outer) side, 2 acyl side, 3 side chain; on linkers, the order of the positions; unused ones are H or OH. Bridge positions count the residues as written; N and C are the ends. Square brackets hold non-standard residues; d marks the D form. Ends that are not written are not given here. * marks the point of attachment. Phenylacetyl(4-Me) = Cc1ccc(CC(=O)*)cc1; NH(CH2)8CO = O=C(CCCCCCCCN[*:1])[*:2]; Myristoyl = CCCCCCCCCCCCCC(=O)*; Suc = O=C(CCC(=O)[*:2])[*:1]; Isobutyryl = CC(C)C(=O)*; Orn = NCCC[C@H](N)C(=O)O; dDap = NC[C@@H](N)C(=O)O; Dab = NCC[C@H](N)C(=O)O; Dap = NC[C@H](N)C(=O)O; Aoc = NCCCCCCCC(=O)O; Ahp = NCCCCCCC(=O)O; βAla = NCCC(=O)O

Assay: general procedure: Fmoc solid-phase peptide synthesis; Rink Amide MBHA resin (0.58 mmol/g or 0.78 mmol/g); Wang resin for C-terminal acids; DIC/HOBt
Settings: whole synthesis, analytical HPLC, scale of the general procedure 0.090 mmol

Substance	purity (crude or final not stated)
Ac-CK[dW]IQC-NH2 (disulfide 1-6; SMILES CC[C@H](C)[C@@H]1NC(=O)[C@@H](Cc2c[nH]c3ccccc23)NC(=O)[C@H](CCCCN)NC(=O)[C@@H](NC(C)=O)CSSC[C@@H](C(N)=O)NC(=O)[C@H](CCC(N)=O)NC1=O)	97%
Ac-CLDPKQKW[dI]QC-NH2 (disulfide 1-11; SMILES CC[C@@H](C)[C@H]1NC(=O)[C@H](Cc2c[nH]c3ccccc23)NC(=O)[C@H](CCCCN)NC(=O)[C@H](CCC(N)=O)NC(=O)[C@H](CCCCN)NC(=O)[C@@H]2CCCN2C(=O)[C@H](CC(=O)O)NC(=O)[C@H](CC(C)C)NC(=O)[C@@H](NC(C)=O)CSSC[C@@H](C(N)=O)NC(=O)[C@H](CCC(N)=O)NC1=O)	94.3%
Isobutyryl-DKWIQK-NH2 (SMILES CC[C@H](C)[C@H](NC(=O)[C@H](Cc1c[nH]c2ccccc12)NC(=O)[C@H](CCCCN)NC(=O)[C@H](CC(=O)O)NC(=O)C(C)C)C(=O)N[C@@H](CCC(N)=O)C(=O)N[C@@H](CCCCN)C(N)=O)	80.3%
[NH(CH2)8CO]KWIQE-NH2 (lactam N-6; SMILES CC[C@H](C)[C@@H]1NC(=O)[C@H](Cc2c[nH]c3ccccc23)NC(=O)[C@H](CCCCN)NC(=O)CCCCCCCCNC(=O)CC[C@@H](C(N)=O)NC(=O)[C@H](CCC(N)=O)NC1=O)	92%
[Ahp]KWIQE-NH2 (lactam N-6; SMILES CC[C@H](C)[C@@H]1NC(=O)[C@H](Cc2c[nH]c3ccccc23)NC(=O)[C@H](CCCCN)NC(=O)CCCCCCNC(=O)CC[C@@H](C(N)=O)NC(=O)[C@H](CCC(N)=O)NC1=O)	90%
Ac-DCLDPKQKWIQC[dDap]-NH2 (disulfide 2-12; SMILES CC[C@H](C)[C@@H]1NC(=O)[C@H](Cc2c[nH]c3ccccc23)NC(=O)[C@H](CCCCN)NC(=O)[C@H](CCC(N)=O)NC(=O)[C@H](CCCCN)NC(=O)[C@@H]2CCCN2C(=O)[C@H](CC(=O)O)NC(=O)[C@H](CC(C)C)NC(=O)[C@@H](NC(=O)[C@H](CC(=O)O)NC(C)=O)CSSC[C@@H](C(=O)N[C@H](CN)C(N)=O)NC(=O)[C@H](CCC(N)=O)NC1=O)	97.7%
H-LDPKQKCWIQC-NH2 (disulfide 7-11; SMILES CC[C@H](C)[C@@H]1NC(=O)[C@H](Cc2c[nH]c3ccccc23)NC(=O)[C@@H](NC(=O)[C@H](CCCCN)NC(=O)[C@H](CCC(N)=O)NC(=O)[C@H](CCCCN)NC(=O)[C@@H]2CCCN2C(=O)[C@H](CC(=O)O)NC(=O)[C@@H](N)CC(C)C)CSSC[C@@H](C(N)=O)NC(=O)[C@H](CCC(N)=O)NC1=O)	87%
H-[dC][dQ][dI][dW][dK][dQ][dK][dP][dD][dL][dC]IE[Aoc]-OH (disulfide 1-11; SMILES CC[C@@H](C)[C@H]1NC(=O)[C@@H](CCC(N)=O)NC(=O)[C@H](N)CSSC[C@H](C(=O)N[C@H](C(=O)N[C@@H](CCC(=O)O)C(=O)NCCCCCCCC(=O)O)[C@@H](C)CC)NC(=O)[C@@H](CC(C)C)NC(=O)[C@@H](CC(=O)O)NC(=O)[C@H]2CCCN2C(=O)[C@@H](CCCCN)NC(=O)[C@@H](CCC(N)=O)NC(=O)[C@@H](CCCCN)NC(=O)[C@@H](Cc2c[nH]c3ccccc23)NC1=O)	99%
[dK](Myristoyl)[dD]CLDPKQKWIQC-NH2 (disulfide 3-13)	85%
Isobutyryl-DKWIQ[Orn]-NH2 (lactam 1-6; SMILES CC[C@H](C)[C@@H]1NC(=O)[C@H](Cc2c[nH]c3ccccc23)NC(=O)[C@H](CCCCN)NC(=O)[C@@H](NC(=O)C(C)C)CC(=O)NCCC[C@@H](C(N)=O)NC(=O)[C@H](CCC(N)=O)NC1=O)	95.1%
[βAla]KWIQE-NH2 (lactam N-6; SMILES CC[C@H](C)[C@@H]1NC(=O)[C@H](Cc2c[nH]c3ccccc23)NC(=O)[C@H](CCCCN)NC(=O)CCNC(=O)CC[C@@H](C(N)=O)NC(=O)[C@H](CCC(N)=O)NC1=O)	95.9%
Ac-EKWIQ[Dab]-NH2 (lactam 1-6; SMILES CC[C@H](C)[C@@H]1NC(=O)[C@H](Cc2c[nH]c3ccccc23)NC(=O)[C@H](CCCCN)NC(=O)[C@@H](NC(C)=O)CCC(=O)NCC[C@@H](C(N)=O)NC(=O)[C@H](CCC(N)=O)NC1=O)	98.2%
Isobutyryl-EKWIQ[Dap]-NH2 (lactam 1-6; SMILES CC[C@H](C)[C@@H]1NC(=O)[C@H](Cc2c[nH]c3ccccc23)NC(=O)[C@H](CCCCN)NC(=O)[C@@H](NC(=O)C(C)C)CCC(=O)NC[C@@H](C(N)=O)NC(=O)[C@H](CCC(N)=O)NC1=O)	93.2%
Ac-CLDP[dK]QKWIQC-NH2 (disulfide 1-11; SMILES CC[C@H](C)[C@@H]1NC(=O)[C@H](Cc2c[nH]c3ccccc23)NC(=O)[C@H](CCCCN)NC(=O)[C@H](CCC(N)=O)NC(=O)[C@@H](CCCCN)NC(=O)[C@@H]2CCCN2C(=O)[C@H](CC(=O)O)NC(=O)[C@H](CC(C)C)NC(=O)[C@@H](NC(C)=O)CSSC[C@@H](C(N)=O)NC(=O)[C@H](CCC(N)=O)NC1=O)	79.1%
[Aoc]KWIQD-NH2 (lactam N-6; SMILES CC[C@H](C)[C@@H]1NC(=O)[C@H](Cc2c[nH]c3ccccc23)NC(=O)[C@H](CCCCN)NC(=O)CCCCCCCNC(=O)C[C@@H](C(N)=O)NC(=O)[C@H](CCC(N)=O)NC1=O)	80.8%
KWIQ[Dab]-NH2 (linker N-5 via Suc; SMILES CC[C@H](C)[C@@H]1NC(=O)[C@H](Cc2c[nH]c3ccccc23)NC(=O)[C@H](CCCCN)NC(=O)CCC(=O)NCC[C@@H](C(N)=O)NC(=O)[C@H](CCC(N)=O)NC1=O)	99.9%
H-LCDPKQKWIQC-NH2 (disulfide 2-11; SMILES CC[C@H](C)[C@@H]1NC(=O)[C@H](Cc2c[nH]c3ccccc23)NC(=O)[C@H](CCCCN)NC(=O)[C@H](CCC(N)=O)NC(=O)[C@H](CCCCN)NC(=O)[C@@H]2CCCN2C(=O)[C@H](CC(=O)O)NC(=O)[C@@H](NC(=O)[C@@H](N)CC(C)C)CSSC[C@@H](C(N)=O)NC(=O)[C@H](CCC(N)=O)NC1=O)	92%
{Phenylacetyl(4-Me)}-CKWIQC-NH2 (disulfide 1-6; SMILES CC[C@H](C)[C@@H]1NC(=O)[C@H](Cc2c[nH]c3ccccc23)NC(=O)[C@H](CCCCN)NC(=O)[C@@H](NC(=O)Cc2ccc(C)cc2)CSSC[C@@H](C(N)=O)NC(=O)[C@H](CCC(N)=O)NC1=O)	95%
H-CLDPKQKWIQ[dC]-NH2 (disulfide 1-11; SMILES CC[C@H](C)[C@@H]1NC(=O)[C@H](Cc2c[nH]c3ccccc23)NC(=O)[C@H](CCCCN)NC(=O)[C@H](CCC(N)=O)NC(=O)[C@H](CCCCN)NC(=O)[C@@H]2CCCN2C(=O)[C@H](CC(=O)O)NC(=O)[C@H](CC(C)C)NC(=O)[C@@H](N)CSSC[C@H](C(N)=O)NC(=O)[C@H](CCC(N)=O)NC1=O)	86.2%
